For one compound, IC50 results are on record in patent US12662465B2, “EGFR inhibitors” (Blueprint Medicines Corporation, priority 2021, dated 2026).

Protein sequences, listed by entry. Tags and fused reporters are not part of them. Lines headed by an entry give the natural chain unless they say otherwise; changes in a name come on top. Residues count along the entry.
UniProt P00533, 25-1210 L858R limits assumed: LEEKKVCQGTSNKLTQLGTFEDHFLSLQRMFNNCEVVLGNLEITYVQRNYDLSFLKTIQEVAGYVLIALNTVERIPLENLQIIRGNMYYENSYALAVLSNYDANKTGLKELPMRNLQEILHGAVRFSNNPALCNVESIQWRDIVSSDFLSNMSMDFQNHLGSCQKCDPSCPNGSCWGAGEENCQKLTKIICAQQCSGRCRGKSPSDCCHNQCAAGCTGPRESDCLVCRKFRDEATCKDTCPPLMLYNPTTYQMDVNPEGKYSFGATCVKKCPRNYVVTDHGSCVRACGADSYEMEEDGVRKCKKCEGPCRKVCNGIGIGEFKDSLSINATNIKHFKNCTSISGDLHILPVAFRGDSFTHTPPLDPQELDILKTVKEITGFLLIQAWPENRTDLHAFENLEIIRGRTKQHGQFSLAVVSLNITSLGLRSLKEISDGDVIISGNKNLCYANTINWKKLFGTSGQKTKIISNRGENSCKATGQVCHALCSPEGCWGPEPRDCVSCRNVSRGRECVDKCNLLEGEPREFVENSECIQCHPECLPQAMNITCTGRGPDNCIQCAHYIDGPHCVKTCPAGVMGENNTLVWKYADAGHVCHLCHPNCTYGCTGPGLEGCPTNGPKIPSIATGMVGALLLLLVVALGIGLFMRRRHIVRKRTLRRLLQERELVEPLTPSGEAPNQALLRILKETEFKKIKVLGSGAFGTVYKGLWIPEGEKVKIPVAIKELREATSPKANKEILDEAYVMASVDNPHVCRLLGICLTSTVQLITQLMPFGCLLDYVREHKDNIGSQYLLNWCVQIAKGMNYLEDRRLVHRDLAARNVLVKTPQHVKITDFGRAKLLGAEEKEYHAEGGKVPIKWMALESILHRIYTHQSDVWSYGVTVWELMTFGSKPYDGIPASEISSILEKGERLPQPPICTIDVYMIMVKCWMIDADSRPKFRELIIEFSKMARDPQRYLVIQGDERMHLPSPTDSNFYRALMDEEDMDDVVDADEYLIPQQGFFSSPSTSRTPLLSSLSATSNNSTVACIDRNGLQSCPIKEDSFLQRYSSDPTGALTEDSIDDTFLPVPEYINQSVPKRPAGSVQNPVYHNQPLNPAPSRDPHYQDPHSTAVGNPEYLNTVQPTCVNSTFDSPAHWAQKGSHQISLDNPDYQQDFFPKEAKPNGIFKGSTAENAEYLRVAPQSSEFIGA

Structures were worked out from names or drawings and are uncertain.

For orientation: IC50 means the midpoint of a concentration-inhibition curve.

In assay [1] the target is EGFR (d746-750) (Homo sapiens, UniProt P00533, DEL746-750). The experiment in a line: Biochemical EGFR inhibition assay (Caliper mobility shift), EGFR (d746-750). The following applies: read-out: Enz EGFR_Exon19-del746-750 IC50; 1.0 mM ATP or ATP Km; room temperature (25° C.).
For assay [2], the target named is EGFR L858R (Homo sapiens, UniProt P00533, L858R). Briefly: Biochemical EGFR inhibition assay (Caliper mobility shift), EGFR L858R. As to conditions: read-out: Enz EGFR_L858R IC50; 1.0 mM ATP or ATP Km; room temperature (25° C.).
The target of assay [3] is intracellular phosphorylation of EGFR (Tyr1068) in PC-9 cells (Ex19Del) (Homo sapiens, UniProt P00533, DEL746-750). The experiment in a line: PC-9 pEGFR AlphaLISA assay. In kind it is cell-based. The following applies: read-out: Ext pEGFR_PC-9 Ex19Del IC50, 4 hours compound incubation. In general terms: In Alpha technology, singlet oxygen from a donor bead excites a nearby acceptor bead.

Take `CC(Oc1cc(-c2cnn(C)c2)cc2ncnc(Nc3ccc4ncccc4c3F)c12)C1CCOCC1` (single isomer, unassigned): the IC50 in assay [1] was less than 10 nM; in assay [2], less than 10 nM; in assay [3], 10.1 to 50 nM.
